Experimental data: PubChem BioAssay AID743121 (NCATS, 2013)

Assay: 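Knock-downs that sensitise breast cancer cells to camptothecin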 (primary screen)
Cells: MDA-MB-231 cells, a human breast cancer line
Reagents: single siRNA against human genes, 20 nM siRNA (0.8 pmol per well)
Duration: 120 h (drug added 48 h after transfection, read 72 h later)
Treatment: camptothecin 20 nM (about EC30) for 72 h; vehicle 0.1% DMSO in parallel plates
Detection: 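CellTiter-Glo ATP signal, scaled to control siRNA as percent viability; sensitisation given as log2 of untreated divided by camptothecin-treated viability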
Direction: log2 vehicle/camptothecin viability: higher = stronger sensitisation to camptothecin
Hit rule: 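Each gene scored by redundant siRNA activity (RSA) over its individual siRNA ratios; a gene is called active at p < 0.001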
Shown is an unselected part of about 26,000 reagents. 167 of all reagents (0.63%) count as active. 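Calls are per gene from RSA p-values that are not deposited; an individual active-marked siRNA can sensitise only weakly.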 Entries without a mark were called inactive. The numbers tell different reagents against one gene apart. Further read-outs or replicates are left out here.

no.	target gene	reagent no.	log2 vehicle/camptothecin viability
1	PPAT	1	-0.479
2	PPAT	2	-1.19
3	PPAT	3	-2
4	PPAT	4	-0.7
5	DIO3	1	0.144
6	DIO3	2	-0.139
7	DIO3	3	0.124
8	DIO3	4	0.0834
9	SERPINA1	1	-0.304
10	SERPINA1	2	-0.0657
11	SERPINA1	3	-0.269
12	SSH1	1	-0.109
13	SSH1	2	-0.46
14	SSH1	3	0.252
15	SSH1	4	0.195
16	KCNIP4	1	0.0109
17	KCNIP4	2	-0.0738
18	KCNIP4	3	-1.31
19	KCNIP4	4	-0.119
20	CD1E	1	0.369
21	CD1E	2	-0.138
22	CD1E	3	0.105
23	CD1E	4	-0.0173
24	NUDT9	1	-0.172
25	NUDT9	2	0.397
26	NUDT9	3	0.292
27	NUDT9	4	-0.229
28	PKD1L1	1	-0.00218
29	PKD1L1	2	-0.329
30	PKD1L1	3	0.105
31	MAD2L1BP	1	0.45
32	MAD2L1BP	2	0.0935
33	MAD2L1BP	3	-0.00169
34	MAD2L1BP	4	-0.0452
35	NEDD4	1	0.12
36	NEDD4	2	0.22
37	NEDD4	3	-0.119
38	NEDD4	4	0.344
39	MYO3A	1	-0.525
40	MYO3A	2	0.0856
41	MYO3A	3	0.0593
42	MYO3A	4	-0.198
43	RPS6KA5	1	-0.286
44	RPS6KA5	2	0.0401
45	RPS6KA5	3	-0.185
46	RPS6KA5	4	-0.493
47	SP1	1	-0.261
48	SP1	2	-0.359
49	SP1	3	-0.358
50	SP1	4	-0.0223
51	DKK4	1	0.0484
52	DKK4	2	-0.18
53	DKK4	3	-0.63
54	DKK4	4	-0.256
55	CAPN3	1	-0.175
56	CAPN3	2	-0.364
57	CAPN3	3	-0.306
58	FGB	1	0.443
59	FGB	2	-0.296
60	FGB	3	0.35
61	FGB	4	-0.557
62	RAB37	1	1.27
63	RAB37	2	0.248
64	RAB37	3	-0.0161
65	RAB37	4	-0.68
66	PRSS2	1	-0.2
67	PRSS2	2	0.504
68	ADRA2B	1	-0.384
69	ADRA2B	2	-0.2
70	ADRA2B	3	0.0514
71	ADRA2B	4	0.0679
